According to the supplement of paper PMC8728848:
Some of the results follow.

Key:
Test in all cases: glycan array binding signal (z-score within array); higher = stronger binding
Settings in all cases: glycan notation: IUPAC condensed, linker removed
[1] = biological target: Neu5Ac(a2-3)Gal(b1-3)]Neu5Ac(a2-3)Gal(b1-4)]GlcNAc
Outline: (§1)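 From the Consortium for Functional Glycomics database, 3228 arrays were curated, keeping only those whose protein sequence was available. Binding is given as a within-array Z-score averaged across arrays sharing a protein sequence and across linkers. Negative Z-scores can be read as non-binding.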

Neu5Ac(a2-3)Gal(b1-4)Glc = biological target: Neu5Ac(a2-3)Gal(b1-4)Glc
Outline: as §1

[2] = biological target: Neu5Ac(a2-3)Gal(b1-4)GlcNAc
Outline: as §1

[3] = biological target: Neu5Ac(a2-3)Gal(b1-4)GlcNAc(b1-2)Man
Outline: as §1

[4] = biological target: Neu5Ac(a2-3)Gal(b1-4)GlcNAc(b1-2)Man(a1-3)[GlcNAc(b1-4)][Neu5Ac(a2-3)Gal(b1-4)GlcNAc(b1-2)Man(a1-6)]Man(b1-4)GlcNAc(b1-4)GlcNAc
Outline: as §1

[5] = biological target: Neu5Ac(a2-3)Gal(b1-4)GlcNAc(b1-2)Man(a1-3)[Neu5Ac(a2-3)Gal(b1-4)GlcNAc(b1-2)Man(a1-6)]Man(b1-4)GlcNAc(b1-4)GlcNAc
Outline: as §1

[6] = biological target: Neu5Ac(a2-3)Gal(b1-4)GlcNAc(b1-2)Man(a1-3)[Neu5Ac(a2-3)Gal(b1-4)GlcNAc(b1-2)Man(a1-6)]Man(b1-4)GlcNAc(b1-4)[Fuc(a1-6)]GlcNAc
Outline: as §1

[7] = biological target: Neu5Ac(a2-3)Gal(b1-4)GlcNAc(b1-2)Man(a1-3)[Neu5Ac(a2-6)Gal(b1-4)GlcNAc(b1-2)Man(a1-6)]Man(b1-4)GlcNAc(b1-4)GlcNAc
Outline: as §1

[8] = biological target: Neu5Ac(a2-3)Gal(b1-4)GlcNAc(b1-2)[Neu5Ac(a2-3)Gal(b1-4)GlcNAc(b1-4)]Man(a1-3)[GlcNAc(b1-4)][Neu5Ac(a2-3)Gal(b1-4)GlcNAc(b1-2)[Neu5Ac(a2-3)Gal(b1-4)GlcNAc(b1-6)]Man(a1-6)]Man(b1-4)GlcNAc(b1-4)GlcNAc
Outline: as §1

[9] = biological target: Neu5Ac(a2-3)Gal(b1-4)GlcNAc(b1-2)[Neu5Ac(a2-3)Gal(b1-4)GlcNAc(b1-4)]Man(a1-3)[GlcNAc(b1-4)][Neu5Ac(a2-3)Gal(b1-4)GlcNAc(b1-4)Man(a1-6)]Man(b1-4)GlcNAc(b1-4)GlcNAc
Outline: as §1

[10] = biological target: Neu5Ac(a2-3)Gal(b1-4)GlcNAc(b1-2)[Neu5Ac(a2-3)Gal(b1-4)GlcNAc(b1-6)]Man(a1-6)[Neu5Ac(a2-3)Gal(b1-4)GlcNAc(b1-2)Man(a1-3)][GlcNAc(b1-4)]Man(b1-4)GlcNAc(b1-4)GlcNAc
Outline: as §1

[11] = biological target: Neu5Ac(a2-3)Gal(b1-4)GlcNAc(b1-3)Gal
Outline: as §1

[12] = biological target: Neu5Ac(a2-3)Gal(b1-4)GlcNAc(b1-3)Gal(b1-3)GlcNAc
Outline: as §1

[13] = biological target: Neu5Ac(a2-3)Gal(b1-4)GlcNAc(b1-3)Gal(b1-4)GlcNAc
Outline: as §1

[14] = biological target: Neu5Ac(a2-3)Gal(b1-4)GlcNAc(b1-3)Gal(b1-4)GlcNAc(b1-2)Man(a1-3)[Neu5Ac(a2-3)Gal(b1-4)GlcNAc(b1-3)Gal(b1-4)GlcNAc(b1-2)Man(a1-6)]Man(b1-4)GlcNAc(b1-4)GlcNAc
Outline: as §1

[15] = biological target: Neu5Ac(a2-3)Gal(b1-4)GlcNAc(b1-3)Gal(b1-4)GlcNAc(b1-3)Gal(b1-4)GlcNAc
Outline: as §1

[16] = biological target: Neu5Ac(a2-3)Gal(b1-4)GlcNAc(b1-3)Gal(b1-4)GlcNAc(b1-3)Gal(b1-4)GlcNAc(b1-2)Man(a1-3)[Neu5Ac(a2-3)Gal(b1-4)GlcNAc(b1-3)Gal(b1-4)GlcNAc(b1-3)Gal(b1-4)GlcNAc(b1-2)Man(a1-6)]GalNAc
Outline: as §1

[17] = biological target: Neu5Ac(a2-3)Gal(b1-4)GlcNAc(b1-3)Gal(b1-4)GlcNAc(b1-3)GalNAc
Outline: as §1

[18] = biological target: Neu5Ac(a2-3)Gal(b1-4)GlcNAc(b1-3)Gal(b1-4)GlcNAc(b1-3)[Neu5Ac(a2-3)Gal(b1-4)GlcNAc(b1-3)Gal(b1-4)GlcNAc(b1-6)]GalNAc
Outline: as §1

[19] = biological target: Neu5Ac(a2-3)Gal(b1-4)GlcNAc(b1-3)Gal(b1-4)GlcNAc(b1-6)[Gal(b1-3)]GalNAc
Outline: as §1

[20] = biological target: Neu5Ac(a2-3)Gal(b1-4)GlcNAc(b1-3)Gal(b1-4)[Fuc(a1-3)]GlcNAc
Outline: as §1

[21] = biological target: Neu5Ac(a2-3)Gal(b1-4)GlcNAc(b1-3)GalNAc
Outline: as §1

[22] = biological target: Neu5Ac(a2-3)Gal(b1-4)GlcNAc(b1-3)[Neu5Ac(a2-3)Gal(b1-4)GlcNAc(b1-6)]GalNAc
Outline: as §1

[23] = biological target: Neu5Ac(a2-3)Gal(b1-4)GlcNAc(b1-6)GalNAc
Outline: as §1

[24] = biological target: Neu5Ac(a2-3)Gal(b1-4)GlcNAc(b1-6)[Gal(b1-3)]GalNAc
Outline: as §1

[25] = biological target: Neu5Ac(a2-3)Gal(b1-4)GlcNAc(b1-6)[Neu5Ac(a2-3)Gal(b1-3)]GalNAc
Outline: as §1

[26] = biological target: Neu5Ac(a2-3)Gal(b1-4)GlcNAc6S
Outline: as §1

[27] = biological target: Neu5Ac(a2-3)Gal(b1-4)[Fuc(a1-3)]GlcNAc
Outline: as §1

[28] = biological target: Neu5Ac(a2-3)Gal(b1-4)[Fuc(a1-3)]GlcNAc(b1-2)Man
Outline: as §1

[29] = biological target: Neu5Ac(a2-3)Gal(b1-4)[Fuc(a1-3)]GlcNAc(b1-3)Gal
Outline: as §1

[30] = biological target: Neu5Ac(a2-3)Gal(b1-4)[Fuc(a1-3)]GlcNAc(b1-3)Gal(b1-4)GlcNAc
Outline: as §1

[31] = biological target: Neu5Ac(a2-3)Gal(b1-4)[Fuc(a1-3)]GlcNAc(b1-3)Gal(b1-4)[Fuc(a1-3)]GlcNAc(b1-3)Gal(b1-4)[Fuc(a1-3)]GlcNAc
Outline: as §1

[32] = biological target: Neu5Ac(a2-3)Gal(b1-4)[Fuc(a1-3)]GlcNAc(b1-3)GalNAc
Outline: as §1

[33] = biological target: Neu5Ac(a2-3)Gal(b1-4)[Fuc(a1-3)]GlcNAc(b1-6)[Gal(b1-3)]GalNAc
Outline: as §1

[34] = biological target: Neu5Ac(a2-3)Gal(b1-4)[Fuc(a1-3)]GlcNAc(b1-6)[Neu5Ac(a2-3)Gal(b1-3)]GalNAc
Outline: as §1

[35] = biological target: Neu5Ac(a2-3)Gal(b1-4)[Fuc(a1-3)]GlcNAc6S
Outline: as §1

[36] = biological target: Neu5Ac(a2-3)Gal6S(b1-4)GlcNAc
Outline: as §1

[37] = biological target: Neu5Ac(a2-3)Gal6S(b1-4)[Fuc(a1-3)]GlcNAc
Outline: as §1

B1: his-Lectin-24A (Drosophila melanogaster) (protein)
chain: MFRLSVLVLNLLLVSHEFSAGTAKIEIQPLPALCNGYCFPTLKPVMEYVAIHQDKWNTCTEILANEARKDQIQLNIQLDALKADVSNIKASQLSKDEKLDRMEREQFAMHESLETINRYLTVKLDRTKLQLEAIKNTMDYMKAQMDGYFSAINGVQCLQPGFEKIGDRYFYIEEDVELNWLDAQAKCRRMGGHLASIKTKQEFDAIVEKLDDSKSYFLGVNENTKTGDFVSAASGKSCLYHEWGPGEPHHNNDQERCVSILRKLMHVGNCTYEKRFICQYGI
[1]
  glycan array binding signal (z-score): -0.55
Neu5Ac(a2-3)Gal(b1-4)Glc
  glycan array binding signal (z-score): 0.289
[2]
  glycan array binding signal (z-score): 0.165
[3]
  glycan array binding signal (z-score): -1.37
[4]
  glycan array binding signal (z-score): -0.23
[5]
  glycan array binding signal (z-score): -0.321
[6]
  glycan array binding signal (z-score): 0.161
[7]
  glycan array binding signal (z-score): 0.85
[8]
  glycan array binding signal (z-score): 2.26
[9]
  glycan array binding signal (z-score): 0.486
[10]
  glycan array binding signal (z-score): -0.362
[11]
  glycan array binding signal (z-score): -1.34
[12]
  glycan array binding signal (z-score): 0.115
[13]
  glycan array binding signal (z-score): -0.872
[14]
  glycan array binding signal (z-score): -0.24
[15]
  glycan array binding signal (z-score): 0.04
[16]
  glycan array binding signal (z-score): 1.14
[17]
  glycan array binding signal (z-score): 0.444
[18]
  glycan array binding signal (z-score): 0.339
[19]
  glycan array binding signal (z-score): -1.11
[20]
  glycan array binding signal (z-score): 0.051
[21]
  glycan array binding signal (z-score): -0.018
[22]
  glycan array binding signal (z-score): 1.34
[23]
  glycan array binding signal (z-score): -0.73
[24]
  glycan array binding signal (z-score): 1.28
[25]
  glycan array binding signal (z-score): -0.127
[26]
  glycan array binding signal (z-score): -0.821
[27]
  glycan array binding signal (z-score): -0.035
[28]
  glycan array binding signal (z-score): -0.996
[29]
  glycan array binding signal (z-score): -0.485
[30]
  glycan array binding signal (z-score): 0.1
[31]
  glycan array binding signal (z-score): -0.945
[32]
  glycan array binding signal (z-score): -0.643
[33]
  glycan array binding signal (z-score): -1.09
[34]
  glycan array binding signal (z-score): 1.76
[35]
  glycan array binding signal (z-score): 0.111
[36]
  glycan array binding signal (z-score): 0.493
[37]
  glycan array binding signal (z-score): -1.28
